# Measured values as given in PubChem BioAssay (EPA / NIEHS).
# Sequences of proteins named here, by UniProt entry; tags and fusion partners are left off. A change or cut given only in a name is not applied to a line headed by its entry.
# UniProt P19793: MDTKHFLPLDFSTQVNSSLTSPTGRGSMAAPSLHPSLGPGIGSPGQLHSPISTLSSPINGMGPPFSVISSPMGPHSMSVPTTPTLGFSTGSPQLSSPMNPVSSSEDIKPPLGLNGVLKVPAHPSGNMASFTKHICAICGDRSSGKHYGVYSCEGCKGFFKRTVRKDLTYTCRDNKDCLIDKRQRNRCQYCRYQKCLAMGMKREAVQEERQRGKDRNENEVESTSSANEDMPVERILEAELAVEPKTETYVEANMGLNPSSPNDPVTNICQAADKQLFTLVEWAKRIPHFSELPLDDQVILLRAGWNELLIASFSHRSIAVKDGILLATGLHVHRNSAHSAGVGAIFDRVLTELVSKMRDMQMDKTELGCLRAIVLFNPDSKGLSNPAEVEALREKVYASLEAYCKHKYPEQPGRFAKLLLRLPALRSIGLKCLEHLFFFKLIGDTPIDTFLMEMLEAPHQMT
# UniProt P04637, whole entry, looked up: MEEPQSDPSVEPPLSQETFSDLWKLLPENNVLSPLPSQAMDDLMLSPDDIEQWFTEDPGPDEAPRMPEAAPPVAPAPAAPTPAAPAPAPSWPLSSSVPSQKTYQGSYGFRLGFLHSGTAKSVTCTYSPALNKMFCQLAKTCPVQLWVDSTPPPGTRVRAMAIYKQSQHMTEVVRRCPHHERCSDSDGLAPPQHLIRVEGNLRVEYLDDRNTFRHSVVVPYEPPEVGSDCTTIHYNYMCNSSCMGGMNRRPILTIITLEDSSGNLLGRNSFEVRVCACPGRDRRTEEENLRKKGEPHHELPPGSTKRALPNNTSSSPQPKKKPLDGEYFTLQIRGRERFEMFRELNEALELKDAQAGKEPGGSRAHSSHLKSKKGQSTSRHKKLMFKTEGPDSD
# Several values for one entry are separate records, joined by “and”; a condition that tells them apart may be missing. Equal entries are not always repeated. The inconclusive results got no clear call from the source; some entries with a clear call stand among them for comparison. Where the call is inconclusive, the potency comes from a doubtful curve fit. A structure can be active in one record and inactive in another. Activity calls are given as the source filed them. Rule for the calls: active = hit-call score of the fitted dose curve at least 0.9, where 1 is the maximum; inconclusive = response in the unintended direction; inactive = score below 0.9.
# Key:
# [1] = target: Retinoic acid receptor RXR-alpha (Homo sapiens) (UniProt P19793); experiment: OT_NURR1_NURR1RXRa_0480: Odyssey Thera (OT) 8-hour HEK293T Protein Complementation Assay for Nurr1/retinoid X receptor (RXR) (AID 2283385)
# Summary of the method: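 Interaction of Nurr1 with RXRα read as reconstituted reporter fluorescence in a HEK293T fragment-complementation system, 8 h post-treatment; increase over DMSO baseline analysed.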
# [2] = target: Retinoic acid receptor RXR-alpha (Homo sapiens) (UniProt P19793); experiment: OT_NURR1_NURR1RXRa_1440: Odyssey Thera (OT) 24-hour HEK293T Protein Complementation Assay for Nurr1/retinoid X receptor (RXR) (AID 2283386)
# Summary of the method: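 Gain in fluorescence, fitted relative to DMSO, reflects Nurr1–RXRα association in HEK293T cells after 24 h dosing. Bait and prey are each linked to a reporter-protein fragment that reassembles on interaction.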
# [3] = TOX21_p53_BLA_p2_viability: Viability Assessment in the Tox21 HCT-116 p53 Agonism Beta-lactamase Assay, Phase 2 (AID 2283591);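 note: compound exposure lasted 16 h at 37 °C; actives lower the ATP signal meaning cytotoxicity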
# Summary of the method: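 Cytotoxicity readout: CellTiter-Glo ATP luminescence, 30 min at room temperature, after the beta-lactamase read. Cells were HCT116 exposed 16 h at 37C to compounds pin-transferred at 217-fold dilution from DMSO stocks.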
# [4] = target: Cellular tumor antigen p53 (Homo sapiens) (UniProt P04637); experiment: TOX21_p53_BLA_p2_ratio: Tox21 HCT-116 p53 Agonism Beta-lactamase Assay, Ratio, Phase 2 (AID 2283592)
# Summary of the method: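 Cleaved-to-uncleaved substrate ratio (460 vs 530 nm) measured in HCT116 cells with an inducible beta-lactamase reporter linked to p53 activity. Compounds incubated 16 h at 37C before 2 h room-temperature CCF4-AM loading.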
# [5] = TOX21_p53_BLA_p3_viability: Viability Assessment in the Tox21 HCT-116 p53 Agonism Beta-lactamase Assay, Phase 3 (AID 2283593);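 note: cells exposed to compound for 16 h before reading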
# Summary of the method: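 Cellular ATP was quantified by CellTiter-Glo luminescence, read after 30 min at room temperature. Beforehand, HCT116 cells (4000/well) received compound 5 h post-seeding, 217-fold diluted from DMSO, then incubated 16 h at 37C.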
# [6] = target: Cellular tumor antigen p53 (Homo sapiens) (UniProt P04637); experiment: TOX21_p53_BLA_p3_ratio: Tox21 HCT-116 p53 Agonism Beta-lactamase Assay, Ratio, Phase 3 (AID 2283596)
# Summary of the method: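 Cells were seeded at 4000/well, rested 5 h at 37C, then dosed with DMSO compound solutions (217-fold dilution) for 16 h. CCF4-AM substrate was loaded for 2 h at room temperature, and the 460/530 nm emission ratio was fitted for gain of signal versus DMSO.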
structure (smiles),measurement,setting,value
CCCCCCc1ccc(O)cc1O,AC50,[1],inconclusive: 50 µM
same,AC50,[2],inconclusive: 50 µM
same,AC50,[3],active: 69.2 µM and active: 73.3 µM and inconclusive: 398 nM
same,AC50,[4],active: 53.5 µM and active: 42.9 µM
same,AC50,[5],active: 67.1 µM
same,AC50,[6],active: 63.9 µM
CC(C)c1nnc2ccc(-c3ocnc3-c3cc(F)ccc3F)cn12,outcome,[1],inactive
same,AC50,[2],inconclusive: 0.153 µM
same,outcome,[3],inactive
same,AC50,[4],inconclusive: 46.1 µM
same,outcome,[5],inactive
same,AC50,[6],inconclusive: 46.1 µM
COc1cc(C(=O)NC2CCN(C)CC2)ccc1Nc1ncc2c(n1)N(C1CCCC1)CC(F)(F)C(=O)N2C,AC50,[1],active: 10.9 µM
same,AC50,[2],active: 11 µM
same,AC50,[4],active: 0.00393 µM
same,AC50,[5],active: 55.2 µM
same,AC50,[6],active: 70.1 µM
CCCCCCC(CO)CCCC (configuration not stated),outcome,[1],inactive
same,outcome,[2],inactive
same,AC50,[3],inconclusive: 46.1 µM
same,AC50,[5],inconclusive: 46.1 µM
CCCCC(CC)COC(=O)c1ccc(N(C)C)cc1 (configuration not stated),AC50,[1],active: 77.7 µM
same,AC50,[2],active: 76 µM
same,outcome,[3],inactive
same,AC50,[4],inconclusive: 23 µM
same,AC50,[5],inconclusive: 46.3 µM
same,AC50,[6],inconclusive: 46.1 µM
same,outcome,[6],inactive
CCCN(C1CCN(C(=O)C2CCNCC2)CC1)[C@@H]1CCc2ccc(OC)cc2C1,AC50,[1],active: 87.3 µM
same,AC50,[2],active: 64.8 µM
same,outcome,[3],inactive
same,outcome,[6],inactive
OCC1CCCO1 (configuration not stated),AC50,[1],inconclusive: 50 µM
same,AC50,[2],inconclusive: 50 µM
same,outcome,[3],inactive
same,AC50,[5],inconclusive: 0.00181 µM
same,AC50,[6],inconclusive: 46.1 µM and inconclusive: 83.7 µM

# Quoted at random: two records from the list.
structure (smiles),measurement,setting,value
COc1cc(C(=O)NC2CCN(C)CC2)ccc1Nc1ncc2c(n1)N(C1CCCC1)CC(F)(F)C(=O)N2C,AC50,[5],active: 55.2 µM
CC(C)c1nnc2ccc(-c3ocnc3-c3cc(F)ccc3F)cn12,AC50,[4],inconclusive: 46.1 µM
